At least one peptide structure holds a part that was inferred or is arguable (an end, a ring closure or a residue). Peptide text beside a SMILES is read from it.
Columns and labels:
human serum complement = assay: Sheep red blood cell (SRBC) lysis assay; assay type: cell-based
complement activation = conditions: several types of assays, Takada et al. 1985; cited from earlier work

N[C@@H](Cc1c[nH]c2ccccc12)C(=O)N[C@@H](Cc1ccc(O)cc1)C(=O)O [Trp-Tyr, tryptophan-tyrosine] (H-Trp-Tyr-OH)
inhibition of human serum complement-mediated lysis of the SRBCs (human serum complement; 10 mM Trp-Tyr): 20% | inhibition of human serum complement-mediated lysis of the SRBCs (human serum complement; 15 mM Trp-Tyr): 50% | inhibition of human serum complement-mediated lysis of the SRBCs (human serum complement; 24 mM Trp-Tyr, highest concentration used): nearly complete inhibition | IC50 (human serum complement; dipeptide concentration (in the conjugate, or free dipeptide), read-out: IC50, SRBC lysis assay, in terms of Trp-Tyr (dipeptide) concentration): 15 mM | concentration range inhibiting complement activation (complement activation): 1 to 10 mM

From patent publication US6232293A, “Method and material for inhibiting complement” (priority 1999, dated 2001)
